# From PubChem BioAssay AID2650 (Broad Institute, 2010)
# Protein sequences, listed by entry. Tags and fused reporters are not part of them. Lines headed by an entry give the natural chain unless they say otherwise; changes in a name come on top.
# UniProt P49840: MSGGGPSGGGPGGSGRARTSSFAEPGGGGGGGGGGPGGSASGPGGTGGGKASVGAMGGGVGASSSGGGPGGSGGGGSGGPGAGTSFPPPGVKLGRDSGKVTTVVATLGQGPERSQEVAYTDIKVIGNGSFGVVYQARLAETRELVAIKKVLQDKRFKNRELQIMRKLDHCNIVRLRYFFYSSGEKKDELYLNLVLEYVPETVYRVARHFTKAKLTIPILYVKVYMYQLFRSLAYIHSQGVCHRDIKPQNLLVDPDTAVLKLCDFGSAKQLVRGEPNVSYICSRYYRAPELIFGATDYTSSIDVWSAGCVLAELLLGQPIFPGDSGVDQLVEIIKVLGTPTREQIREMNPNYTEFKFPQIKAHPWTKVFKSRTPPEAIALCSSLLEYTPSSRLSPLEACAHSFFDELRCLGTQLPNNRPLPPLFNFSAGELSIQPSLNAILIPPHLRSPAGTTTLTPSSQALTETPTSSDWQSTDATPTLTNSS
# Hit rate of the full screen: of about 320,000 compounds, about 320 (0.1%) were called active. These results got no clear call from the source, so the numbers are uncertain.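 How the source made its calls: active means more than half of replicates show inhibition above 20%; inconclusive means some but at most half of replicates above 20% inhibition; inactive means no replicate shows inhibition above 20%.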
# Biological target: Glycogen synthase kinase-3 alpha (Homo sapiens) (UniProt P49840)
# Assay: blockers of GSK3A enzyme activity – biochemical, luminescence, cell-free homogeneous, HTS, primary screen (AID 2650);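 further: GST-tagged GSK-3 alpha with peptide substrate and 25 µM ATP; 0% = DMSO neutral wells and 100% = GW8510 positive control wells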
# Conditions: GSK-3 alpha kinase, ADP-Glo luminescence, 60 min; at 10 µM; active compounds read high
row,SMILES,inhibition
1,COc1ccc(-n2c(O)c(C=NCCCn3ccnc3)c(=O)[nH]c2=O)cc1,inconclusive: 33.4%
